Assay results reported in the supplement of paper PMC12823440, “Inhibitors supercharge kinase turnover through native proteolytic circuits” (Nature, 2025).
Where a name gives a salt, the structure may show the parent alone. This is one part of the list. Hit calls seldom repeat between salt and free forms of one compound.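 In K562 cells expressing nanoluciferase-fused kinases, luminescence was recorded at 4 h intervals between 2 and 18 h, normalized as percent of control with DMSO at 100% and a positive control at 0%. A significant (2 sigma) signal drop marks a time point as decreased. The authors' rule for a hit is not shown and takes in more than the number of time points.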

Sequences of proteins named here, by UniProt entry; tags and fusion partners are left off. A change or cut given only in a name is not applied to a line headed by its entry.
UniProt Q01974, whole entry: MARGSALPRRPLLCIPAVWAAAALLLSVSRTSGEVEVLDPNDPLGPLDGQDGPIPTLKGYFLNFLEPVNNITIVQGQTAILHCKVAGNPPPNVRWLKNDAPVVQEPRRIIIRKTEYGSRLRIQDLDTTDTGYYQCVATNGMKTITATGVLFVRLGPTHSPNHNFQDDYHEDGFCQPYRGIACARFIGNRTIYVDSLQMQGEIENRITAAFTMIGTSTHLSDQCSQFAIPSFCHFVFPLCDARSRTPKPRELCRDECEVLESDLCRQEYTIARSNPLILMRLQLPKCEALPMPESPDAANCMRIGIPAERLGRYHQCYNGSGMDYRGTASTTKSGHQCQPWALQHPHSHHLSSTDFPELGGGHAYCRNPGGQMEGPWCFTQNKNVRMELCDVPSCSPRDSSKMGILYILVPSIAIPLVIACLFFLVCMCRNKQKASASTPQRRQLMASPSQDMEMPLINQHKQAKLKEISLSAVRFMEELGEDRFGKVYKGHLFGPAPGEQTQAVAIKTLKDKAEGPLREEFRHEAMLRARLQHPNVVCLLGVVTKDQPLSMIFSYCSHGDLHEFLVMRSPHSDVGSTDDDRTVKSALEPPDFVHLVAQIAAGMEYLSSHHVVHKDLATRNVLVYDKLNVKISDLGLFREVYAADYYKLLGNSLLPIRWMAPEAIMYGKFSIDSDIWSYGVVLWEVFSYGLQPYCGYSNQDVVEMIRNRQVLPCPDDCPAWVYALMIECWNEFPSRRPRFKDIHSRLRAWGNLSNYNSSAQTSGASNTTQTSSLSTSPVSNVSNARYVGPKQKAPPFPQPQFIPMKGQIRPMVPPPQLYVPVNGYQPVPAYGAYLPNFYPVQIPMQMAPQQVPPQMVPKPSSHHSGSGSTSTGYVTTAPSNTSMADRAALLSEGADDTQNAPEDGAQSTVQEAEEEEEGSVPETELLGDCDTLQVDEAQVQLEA
UniProt Q15418, whole entry: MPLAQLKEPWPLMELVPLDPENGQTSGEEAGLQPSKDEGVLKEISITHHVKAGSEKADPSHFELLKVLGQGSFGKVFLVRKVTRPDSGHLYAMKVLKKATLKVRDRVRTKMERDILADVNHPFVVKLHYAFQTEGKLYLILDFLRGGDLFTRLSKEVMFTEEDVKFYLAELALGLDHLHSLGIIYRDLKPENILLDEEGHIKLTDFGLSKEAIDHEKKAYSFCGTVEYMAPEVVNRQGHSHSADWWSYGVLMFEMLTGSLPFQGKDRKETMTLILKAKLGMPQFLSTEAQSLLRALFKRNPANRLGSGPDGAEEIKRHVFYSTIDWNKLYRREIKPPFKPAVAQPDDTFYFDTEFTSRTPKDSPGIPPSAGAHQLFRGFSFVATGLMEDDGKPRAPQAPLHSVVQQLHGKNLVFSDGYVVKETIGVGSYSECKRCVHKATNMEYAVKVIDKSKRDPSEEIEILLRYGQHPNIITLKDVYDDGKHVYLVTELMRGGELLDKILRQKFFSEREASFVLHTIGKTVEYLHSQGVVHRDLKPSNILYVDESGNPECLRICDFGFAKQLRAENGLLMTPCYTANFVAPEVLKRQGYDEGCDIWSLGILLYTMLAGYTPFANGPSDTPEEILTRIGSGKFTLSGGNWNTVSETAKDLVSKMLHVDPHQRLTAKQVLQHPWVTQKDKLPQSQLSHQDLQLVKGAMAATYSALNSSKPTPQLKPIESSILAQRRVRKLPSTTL
UniProt Q9NYA1, whole entry: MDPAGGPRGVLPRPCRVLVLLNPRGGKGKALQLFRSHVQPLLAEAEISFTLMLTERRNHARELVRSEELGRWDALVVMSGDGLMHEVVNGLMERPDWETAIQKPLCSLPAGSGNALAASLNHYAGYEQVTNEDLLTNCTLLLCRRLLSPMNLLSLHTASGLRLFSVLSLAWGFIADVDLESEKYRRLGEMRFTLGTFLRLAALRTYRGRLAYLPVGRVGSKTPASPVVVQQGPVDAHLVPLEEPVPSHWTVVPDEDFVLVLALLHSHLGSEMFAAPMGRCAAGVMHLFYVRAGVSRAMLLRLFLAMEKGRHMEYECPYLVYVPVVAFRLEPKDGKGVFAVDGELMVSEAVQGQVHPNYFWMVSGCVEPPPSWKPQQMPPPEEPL
UniProt Q9Y6E0: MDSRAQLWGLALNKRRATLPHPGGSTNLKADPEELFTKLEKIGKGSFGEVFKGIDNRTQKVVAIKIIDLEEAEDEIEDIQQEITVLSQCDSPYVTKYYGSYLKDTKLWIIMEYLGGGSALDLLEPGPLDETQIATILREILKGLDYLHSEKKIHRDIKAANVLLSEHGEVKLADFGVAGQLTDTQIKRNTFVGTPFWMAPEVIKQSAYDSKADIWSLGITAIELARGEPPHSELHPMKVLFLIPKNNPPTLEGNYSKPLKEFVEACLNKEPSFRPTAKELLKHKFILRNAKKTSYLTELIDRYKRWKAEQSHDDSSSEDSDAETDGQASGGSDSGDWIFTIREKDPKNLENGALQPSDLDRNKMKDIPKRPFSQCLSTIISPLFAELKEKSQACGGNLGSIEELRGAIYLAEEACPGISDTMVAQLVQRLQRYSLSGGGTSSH
UniProt Q15208: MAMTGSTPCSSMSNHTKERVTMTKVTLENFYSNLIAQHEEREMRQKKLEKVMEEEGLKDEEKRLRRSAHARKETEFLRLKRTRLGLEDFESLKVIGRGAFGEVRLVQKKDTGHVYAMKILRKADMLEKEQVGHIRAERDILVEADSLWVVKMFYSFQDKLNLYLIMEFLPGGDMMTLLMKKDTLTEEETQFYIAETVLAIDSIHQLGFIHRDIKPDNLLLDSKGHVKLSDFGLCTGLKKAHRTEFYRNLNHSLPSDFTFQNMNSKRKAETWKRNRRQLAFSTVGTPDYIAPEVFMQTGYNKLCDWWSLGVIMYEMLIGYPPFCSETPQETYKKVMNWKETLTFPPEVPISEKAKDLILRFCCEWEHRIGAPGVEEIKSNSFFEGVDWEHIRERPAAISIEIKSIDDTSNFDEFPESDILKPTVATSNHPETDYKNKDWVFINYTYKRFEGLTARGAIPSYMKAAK
UniProt P42680: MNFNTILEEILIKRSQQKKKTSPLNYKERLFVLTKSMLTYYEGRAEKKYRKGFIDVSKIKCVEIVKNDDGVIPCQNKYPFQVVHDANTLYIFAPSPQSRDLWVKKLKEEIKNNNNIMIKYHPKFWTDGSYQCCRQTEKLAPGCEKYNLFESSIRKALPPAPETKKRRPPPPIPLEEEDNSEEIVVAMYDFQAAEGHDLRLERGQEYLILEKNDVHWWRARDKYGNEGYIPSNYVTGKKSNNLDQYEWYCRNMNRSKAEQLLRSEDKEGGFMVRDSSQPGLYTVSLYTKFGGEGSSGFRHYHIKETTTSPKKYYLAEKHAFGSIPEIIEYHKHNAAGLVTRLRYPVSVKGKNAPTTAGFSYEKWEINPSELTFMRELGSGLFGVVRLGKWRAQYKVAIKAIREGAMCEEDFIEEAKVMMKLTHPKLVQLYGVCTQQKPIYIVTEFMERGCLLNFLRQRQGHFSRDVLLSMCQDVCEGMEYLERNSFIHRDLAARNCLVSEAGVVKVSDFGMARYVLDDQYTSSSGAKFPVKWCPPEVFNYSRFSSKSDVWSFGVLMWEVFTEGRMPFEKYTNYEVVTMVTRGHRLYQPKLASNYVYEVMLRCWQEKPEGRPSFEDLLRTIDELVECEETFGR
UniProt Q6PHR2: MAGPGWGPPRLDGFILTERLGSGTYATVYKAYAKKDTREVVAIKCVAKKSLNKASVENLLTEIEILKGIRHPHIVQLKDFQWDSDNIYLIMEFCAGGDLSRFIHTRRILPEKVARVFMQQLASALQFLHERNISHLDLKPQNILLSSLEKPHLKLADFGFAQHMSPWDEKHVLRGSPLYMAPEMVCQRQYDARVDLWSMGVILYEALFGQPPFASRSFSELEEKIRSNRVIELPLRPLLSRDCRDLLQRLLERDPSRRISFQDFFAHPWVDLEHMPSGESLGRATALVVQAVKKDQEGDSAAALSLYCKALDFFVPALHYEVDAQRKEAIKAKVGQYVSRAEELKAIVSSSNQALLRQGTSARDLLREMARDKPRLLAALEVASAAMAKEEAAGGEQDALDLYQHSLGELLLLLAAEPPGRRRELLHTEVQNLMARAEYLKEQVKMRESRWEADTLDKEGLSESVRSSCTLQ
UniProt P07947, whole entry, looked up: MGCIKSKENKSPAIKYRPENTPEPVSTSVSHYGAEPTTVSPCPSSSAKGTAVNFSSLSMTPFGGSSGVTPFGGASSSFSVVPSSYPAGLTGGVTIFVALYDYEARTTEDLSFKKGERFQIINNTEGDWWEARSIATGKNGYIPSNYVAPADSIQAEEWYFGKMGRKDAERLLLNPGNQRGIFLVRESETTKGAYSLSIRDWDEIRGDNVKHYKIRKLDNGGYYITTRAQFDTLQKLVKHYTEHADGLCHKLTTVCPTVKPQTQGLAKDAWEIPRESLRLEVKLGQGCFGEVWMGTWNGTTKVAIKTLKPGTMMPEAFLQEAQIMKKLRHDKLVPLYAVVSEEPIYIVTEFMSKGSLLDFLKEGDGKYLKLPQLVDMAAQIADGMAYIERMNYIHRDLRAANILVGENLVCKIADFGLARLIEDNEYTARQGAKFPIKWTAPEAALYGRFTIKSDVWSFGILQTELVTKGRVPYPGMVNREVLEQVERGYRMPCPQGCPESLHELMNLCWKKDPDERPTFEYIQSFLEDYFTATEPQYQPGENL
UniProt P43403: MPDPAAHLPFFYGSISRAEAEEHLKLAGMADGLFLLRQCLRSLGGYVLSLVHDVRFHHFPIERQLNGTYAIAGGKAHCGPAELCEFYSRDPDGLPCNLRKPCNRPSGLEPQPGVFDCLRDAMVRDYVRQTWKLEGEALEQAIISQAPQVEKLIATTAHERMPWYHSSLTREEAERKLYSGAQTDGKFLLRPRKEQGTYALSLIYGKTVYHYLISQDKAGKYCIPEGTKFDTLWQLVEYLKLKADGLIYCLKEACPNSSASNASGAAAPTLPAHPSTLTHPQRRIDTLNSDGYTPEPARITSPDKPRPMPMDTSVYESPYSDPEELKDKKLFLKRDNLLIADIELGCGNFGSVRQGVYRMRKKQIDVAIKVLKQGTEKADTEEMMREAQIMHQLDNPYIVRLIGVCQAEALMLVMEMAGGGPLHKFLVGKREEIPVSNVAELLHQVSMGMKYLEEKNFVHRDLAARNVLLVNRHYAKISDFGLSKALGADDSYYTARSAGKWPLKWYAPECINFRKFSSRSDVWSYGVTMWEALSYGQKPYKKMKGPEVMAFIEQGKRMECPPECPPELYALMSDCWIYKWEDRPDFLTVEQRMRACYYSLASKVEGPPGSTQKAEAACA
UniProt P11802: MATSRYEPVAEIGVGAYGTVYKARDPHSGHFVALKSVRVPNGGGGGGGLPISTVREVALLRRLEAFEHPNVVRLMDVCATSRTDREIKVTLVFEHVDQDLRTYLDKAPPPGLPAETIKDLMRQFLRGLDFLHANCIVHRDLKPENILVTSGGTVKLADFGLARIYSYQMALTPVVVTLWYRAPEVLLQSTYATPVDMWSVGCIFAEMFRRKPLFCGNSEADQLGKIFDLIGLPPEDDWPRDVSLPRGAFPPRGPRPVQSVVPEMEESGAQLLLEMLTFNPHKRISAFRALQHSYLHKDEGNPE
UniProt P50613: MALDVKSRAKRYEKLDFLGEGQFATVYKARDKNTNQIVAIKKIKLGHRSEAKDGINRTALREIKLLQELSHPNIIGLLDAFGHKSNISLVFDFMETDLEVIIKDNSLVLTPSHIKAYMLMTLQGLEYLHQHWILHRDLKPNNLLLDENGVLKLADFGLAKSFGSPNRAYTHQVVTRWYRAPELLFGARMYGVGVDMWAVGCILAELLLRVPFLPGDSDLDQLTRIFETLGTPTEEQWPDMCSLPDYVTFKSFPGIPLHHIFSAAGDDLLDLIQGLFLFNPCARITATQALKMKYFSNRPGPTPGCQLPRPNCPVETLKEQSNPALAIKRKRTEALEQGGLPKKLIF
UniProt P50750, whole entry: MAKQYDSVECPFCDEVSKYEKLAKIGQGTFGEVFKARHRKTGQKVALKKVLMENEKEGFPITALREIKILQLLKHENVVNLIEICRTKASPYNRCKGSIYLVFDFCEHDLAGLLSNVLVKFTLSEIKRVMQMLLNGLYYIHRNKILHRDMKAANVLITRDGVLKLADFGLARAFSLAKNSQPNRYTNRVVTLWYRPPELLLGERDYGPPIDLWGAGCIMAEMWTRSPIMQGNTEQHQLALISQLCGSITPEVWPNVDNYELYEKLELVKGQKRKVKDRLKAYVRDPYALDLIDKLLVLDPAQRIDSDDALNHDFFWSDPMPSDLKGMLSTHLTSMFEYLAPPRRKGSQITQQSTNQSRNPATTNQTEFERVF

Columns and labels:
Settings in all cases: K562; 2-18 h
[1] = target: ROR2 (UniProt Q01974); assay: number of time points (of 5) at which kinase-Nluc abundance scored as decreased, DMSO-normalised (count); higher = more persistent destabilization
[2] = target: RPS6KA1 (UniProt Q15418); assay: as above
[3] = target: SPHK1 (UniProt Q9NYA1); assay: as above
[4] = target: SRC (UniProt P12931); assay: as above
[5] = target: STK24 (UniProt Q9Y6E0); assay: as above
[6] = target: STK38 (UniProt Q15208); assay: as above
[7] = target: SYK (UniProt P43405); assay: as above
[8] = target: TEC (UniProt P42680); assay: as above
[9] = target: TYK2 (UniProt P29597); assay: as above
[10] = target: ULK3 (UniProt Q6PHR2); assay: as above
[11] = target: YES1 (UniProt P07947); assay: as above
[12] = target: ZAK (UniProt Q9NYL2); assay: as above
[13] = target: ZAP70 (UniProt P43403); assay: as above
[14] = target: CDK4 (UniProt P11802); assay: number of time points (of 4; 2 h point missing) at which kinase-Nluc abundance scored as decreased, DMSO-normalised (count); higher = more persistent destabilization
[15] = target: CDK7 (UniProt P50613); assay: as above
[16] = target: CDK9 (UniProt P50750); assay: as above

| Structure (SMILES) | number of time points [1] | number of time points [2] | number of time points [3] | number of time points [4] | number of time points [5] | number of time points [6] | number of time points [7] | number of time points [8] | number of time points [9] | number of time points [10] | number of time points [11] | number of time points [12] | number of time points [13] | number of time points [14] | number of time points [15] | number of time points [16] |
| --- | --- | --- | --- | --- | --- | --- | --- | --- | --- | --- | --- | --- | --- | --- | --- | --- |
| CC/C(=C(\c1ccccc1)c1ccc(OCCNC)cc1)c1ccccc1 [N-Desmethyltamoxifen (hydrochloride)] (2.5 µM) | 0 | 0 | 0 | 0 | 0 | 0 | 0 | 0 | 0 | 0 | 0 | 0 | 0 | 0 | 0 | 0 |
| Nc1ccc(C(=O)Nc2cccc(-c3nc(N4CCOCC4)c4oc5ncccc5c4n3)c2)cn1 (10 µM) | 0 | 0 | 0 | 0 | 0 | 0 | 0 | 0 | 0 | 2 | 0 | 0 | 0 | 0 | 0 | 0 |
| N#Cc1cc(N2CCC(C(=O)N3N=CC[C@H]3c3cc(F)cc(F)c3)CC2)ncn1 (10 µM) | 0 | 0 | 0 | 0 | 0 | 0 | 0 | 0 | 0 | 0 | 0 | 0 | 0 | 0 | 0 | 0 |
| CC1=C(C#N)C(c2ccc3[nH]nc(C)c3c2)C(C#N)=C(C)N1 (10 µM) | 0 | 0 | 0 | 0 | 0 | 0 | 0 | 0 | 0 | 0 | 0 | 0 | 0 | 0 | 0 | 0 |
| O=C(CCl)c1c[nH]c2ccccc12 (2.5 µM) | 0 | 0 | 0 | 0 | 0 | 0 | 0 | 0 | 0 | 0 | 0 | 0 | 0 | 0 | 0 | 0 |
| NC(=O)c1c(NC(=O)C2CC2)sc2c1CCCC2 (10 µM) | 0 | 0 | 0 | 0 | 0 | 0 | 0 | 0 | 0 | 0 | 0 | 0 | 0 | 0 | 0 | 0 |
| CS[C@@]1(C(=O)Nc2ccc3[nH]nc(-c4ccc(OC(C)C)nc4)c3c2)CCN(CC(=O)N2CC=C(c3ccc(-c4ncn(C)n4)cc3)CC2)C1 (2.5 µM) | 0 | 0 | 0 | 0 | 0 | 0 | 0 | 0 | 0 | 0 | 0 | 0 | 0 | 0 | 0 | 0 |
| CNCCOc1ccccc1C1(Nc2nccn(-c3cc(C(=O)NC4CC4)cc(F)c3C)c2=O)CC1 (10 µM) | 0 | 0 | 0 | 0 | 0 | 0 | 0 | 0 | 0 | 0 | 0 | 0 | 0 | 0 | 0 | 0 |
| Cc1nn(CC(F)(F)F)cc1Nc1ncc(Br)c(NCc2ccc(S(N)(=O)=O)cc2)n1 (10 µM) | 0 | 0 | 0 | 0 | 0 | 0 | 0 | 0 | 0 | 0 | 0 | 0 | 0 | 0 | 0 | 0 |
| Nc1ccc(-c2cccc(C(=O)Nc3cnc4nc(N5CCOCC5)oc4c3)n2)cn1 (10 µM) | 0 | 0 | 0 | 0 | 0 | 0 | 0 | 0 | 0 | 0 | 0 | 0 | 0 | 0 | 0 | 0 |
| NC(=O)c1ccccc1Nc1ccnc(Nc2cccc(O)c2)n1 (10 µM) | 0 | 0 | 0 | 0 | 0 | 1 | 0 | 2 | 4 | 0 | 1 | 0 | 0 | 0 | 3 | 0 |
| COc1c(O)cc(O)c2c(=O)cc(-c3ccccc3)oc12 [Wogonin] (10 µM) | 0 | 0 | 0 | 0 | 0 | 0 | 0 | 0 | 0 | 0 | 0 | 0 | 0 | 0 | 0 | 0 |
| CCCCC(=O)OCC(=O)[C@]1(O)Cc2c(O)c3c(c(O)c2[C@@H](O[C@H]2C[C@H](NC(=O)C(F)(F)F)[C@H](O)[C@H](C)O2)C1)C(=O)c1c(OC)cccc1C3=O [Valrubicin] (10 µM) | 0 | 0 | 0 | 0 | 0 | 0 | 0 | 0 | 0 | 0 | 0 | 0 | 0 | 0 | 1 | 0 |
| O=C(Nc1ccc(Cl)cc1)C1CN(C(=O)c2cccc(-c3ccco3)c2)CC(F)(F)C1 (stereo unspecified) (2.5 µM) | 0 | 0 | 0 | 0 | 0 | 0 | 0 | 0 | 0 | 0 | 0 | 0 | 0 | 0 | 0 | 0 |
| C=CC(=O)Nc1cccc(Oc2nc(Nc3ccc(N4CCN(C)CC4)cc3OC)ncc2Cl)c1 (10 µM) | 0 | 0 | 0 | 0 | 0 | 0 | 0 | 0 | 0 | 0 | 0 | 0 | 0 | 0 | 0 | 0 |
| COc1cc(Nc2ccnc3ccc(Br)cc23)cc(OC)c1OC (2.5 µM) | 0 | 0 | 0 | 0 | 0 | 0 | 0 | 0 | 1 | 0 | 0 | 0 | 0 | 0 | 0 | 0 |
| Nc1ccc(O)c(C(=O)O)c1 [5-Aminosalicylic Acid] (10 µM) | 0 | 0 | 0 | 0 | 0 | 0 | 0 | 0 | 0 | 0 | 0 | 0 | 0 | 0 | 0 | 0 |
| NCCNS(=O)(=O)c1ccc(Cl)c2ccncc12 [CKI-7 (free base)] (10 µM) | 0 | 0 | 0 | 0 | 0 | 0 | 0 | 0 | 0 | 0 | 0 | 0 | 0 | 0 | 0 | 0 |
| N#C/C(=C/c1ccc(O)c(O)c1)C(=O)N1CCc2ccccc21 [Tyrphostin AG 528] (10 µM) | 0 | 0 | 0 | 0 | 0 | 0 | 0 | 0 | 0 | 0 | 0 | 0 | 0 | 0 | 0 | 0 |
| CC1=CC(=O)C(C(C)C)=C/C1=N/OC(=O)c1ccccc1C [Poloxin] (2.5 µM) | 0 | 0 | 0 | 0 | 0 | 0 | 0 | 0 | 0 | 0 | 0 | 0 | 0 | 0 | 0 | 0 |
| COCCNc1cc(NC(=O)N2CCCc3cc(CN4CCOCC4=O)c(C=O)nc32)ncc1C#N (10 µM) | 0 | 0 | 0 | 0 | 0 | 0 | 0 | 0 | 0 | 0 | 0 | 0 | 0 | 0 | 0 | 0 |
| O=C(Nc1ccnc(NC(=O)C2CC2)c1)c1c(Cl)cccc1Cl (10 µM) | 0 | 0 | 0 | 0 | 0 | 0 | 0 | 0 | 0 | 0 | 0 | 0 | 0 | 0 | 0 | 0 |
| CO[C@]1(C(=O)N[C@@H](C)c2ccc(-n3cc(F)cn3)nc2)CC[C@H](c2nc(C)cc(Nc3cc(C)[nH]n3)n2)CC1 [Pralsetinib] (10 µM) | 0 | 0 | 0 | 0 | 0 | 0 | 0 | 0 | 0 | 0 | 0 | 0 | 0 | 0 | 0 | 0 |
| CS(=O)(=O)c1ccc([C@@H](CC2CCCC2)C(=O)Nc2nccs2)cc1 (10 µM) | 0 | 0 | 0 | 0 | 0 | 0 | 0 | 0 | 0 | 0 | 0 | 0 | 0 | 0 | 0 | 0 |
| O=CN1CCN(c2ccc(C=C3C(=O)Nc4ccccc43)cc2)CC1 (10 µM) | 0 | 0 | 0 | 0 | 0 | 0 | 0 | 0 | 0 | 0 | 0 | 0 | 0 | 0 | 0 | 0 |
| Oc1ccc(-c2cnc3ccc(NCc4ccco4)nn23)cc1 [IRAK inhibitor 2] (2.5 µM) | 0 | 0 | 0 | 0 | 0 | 0 | 0 | 0 | 0 | 0 | 0 | 0 | 0 | 0 | 0 | 0 |

Random excerpt: 2 compounds from above, in no set order.

| Structure (SMILES) | number of time points [1] | number of time points [2] | number of time points [3] | number of time points [4] | number of time points [5] | number of time points [6] | number of time points [7] | number of time points [8] | number of time points [9] | number of time points [10] | number of time points [11] | number of time points [12] | number of time points [13] | number of time points [14] | number of time points [15] | number of time points [16] |
| --- | --- | --- | --- | --- | --- | --- | --- | --- | --- | --- | --- | --- | --- | --- | --- | --- |
| CCCCC(=O)OCC(=O)[C@]1(O)Cc2c(O)c3c(c(O)c2[C@@H](O[C@H]2C[C@H](NC(=O)C(F)(F)F)[C@H](O)[C@H](C)O2)C1)C(=O)c1c(OC)cccc1C3=O [Valrubicin] (10 µM) | 0 | 0 | 0 | 0 | 0 | 0 | 0 | 0 | 0 | 0 | 0 | 0 | 0 | 0 | 1 | 0 |
| COCCNc1cc(NC(=O)N2CCCc3cc(CN4CCOCC4=O)c(C=O)nc32)ncc1C#N (10 µM) | 0 | 0 | 0 | 0 | 0 | 0 | 0 | 0 | 0 | 0 | 0 | 0 | 0 | 0 | 0 | 0 |
